In PubChem BioAssay AID248 (DTP/NCI, 2004):
The list does not hold the whole screen: it is rich in T/C values a quarter to a half above the control, in often repeated tests (any T/C) and in doses without a T/C. Other doses and runs of a compound stand elsewhere. T/C: endpoint of the treated group in % of that of the vehicle group. Some entries give survivors of the animals treated and no T/C: the source files T/C as zero there, which appears to mark a toxic dose or a test without result, not a measured value. Some survivor counts are full or nearly so, which does not show that the dose was tolerated: survival well below the control is almost never listed, so the zero probably covers shortened survival too. Survivors were counted at the toxicity check, usually on the fifth day, unless a day is given; later deaths do not show. Schedules are NCI's codes, read here as Q, the interval in days (D) or hours (H), X, the number of doses. Some schedules carry Z or #; the key to these is not given. Where survival is the endpoint, this PubChem deposit counts one and a half times the control or more as active, and values a quarter to a half above the control carry no call in these data; other NCI protocols may use other cut-offs. Some entries hold several experiments; their values stand side by side, smallest first. Some T/C values are followed by the survivors on the day toxicity was checked, most often the fifth; where none is given, no animal had died by that day.

System: L1210 leukemia ip in BDF1 mice, survival T/C
Experiment: NCI In Vivo Anticancer Drug Screen. Data for tumor model L1210 Leukemia (intraperitoneal) in B6D2F1 (BDF1) mice
Conditions: T/C endpoint: mean survival time, higher T/C = longer survival
[1] = dose: 18.75 mg/kg/injection, schedule: Q01DX Z (ip), vehicle: methylcellulose (MC)
[2] = dose: 37.5 mg/kg/injection, schedule: Q01DX Z (ip), vehicle: methylcellulose (MC)
[3] = dose: 200.0 mg/kg/injection, schedule: Q04DX003 (ip), vehicle: Klucel (hydroxypropylcellulose) (HPC)
[4] = dose: 400.0 mg/kg/injection, schedule: Q04DX003 (ip), vehicle: Klucel (hydroxypropylcellulose) (HPC)
[5] = dose: 200.0 mg/kg/injection, schedule: Q01DX009 (ip), vehicle: saline
[6] = dose: 400.0 mg/kg/injection, schedule: Q01DX001 (ip), vehicle: saline
[7] = dose: 400.0 mg/kg/injection, schedule: Q04DX002 (ip), vehicle: saline with Tween-80
[8] = dose: 400.0 mg/kg/injection, schedule: Q04DX003 (ip), vehicle: saline
[9] = dose: 200.0 mg/kg/injection, schedule: Q04DX003 (ip), vehicle: saline with Tween-80
[10] = dose: 400.0 mg/kg/injection, schedule: Q04DX003 (ip), vehicle: saline with Tween-80
[11] = dose: 400.0 mg/kg/injection, schedule: Q01DX009 (ip), vehicle: saline
[12] = dose: 100.0 mg/kg/injection, schedule: Q01DX009 (ip), vehicle: Klucel (hydroxypropylcellulose) (HPC)
[13] = dose: 200.0 mg/kg/injection, schedule: Q01DX001 (ip), vehicle: carboxymethylcellulose (CMC)
[14] = dose: 100.0 mg/kg/injection, schedule: Q04DX003 (ip), vehicle: saline

Question: With `CCOC(=O)CCOc1ccccc1N(CCCl)CCCl` as the compound, how does the T/C (dose: 2.6 mg/kg/injection, schedule: Q01DX Z (ip), vehicle: methylcellulose (MC)) read?
Answer: 125 % of control

Question: What about the T/C (dose: 3.9 mg/kg/injection, schedule: Q01DX Z (ip), vehicle: methylcellulose (MC)) of the same compound?
Answer: 144 % of control

Question: What about the T/C (dose: 6.25 mg/kg/injection, schedule: Q01DX009 (ip), vehicle: other) of the same compound?
Answer: 130 % of control

Question: And the T/C (dose: 8.7 mg/kg/injection, schedule: Q01DX Z (ip), vehicle: methylcellulose (MC))?
Answer: 128 % of control

Question: And the T/C (dose: 12.5 mg/kg/injection, schedule: Q01DX001 (ip), vehicle: carboxymethylcellulose (CMC))?
Answer: 129 % of control

Question: And the T/C (dose: 12.5 mg/kg/injection, schedule: Q01DX009 (ip), vehicle: other)?
Answer: 145 % of control

Question: What about the T/C (dose: 12.5 mg/kg/injection, schedule: Q01DX009 (ip), vehicle: saline with Tween-80) of the same compound?
Answer: 131 % of control [5 of 6 alive]

Question: And the T/C [1]?
Answer: 125 % of control

Question: What about the survivor count [1] of the same compound?
Answer: 0 of 6

Question: And the T/C (dose: 20.0 mg/kg/injection, schedule: Q01DX Z (ip), vehicle: methylcellulose (MC))?
Answer: 146 % of control

Question: And the T/C (dose: 25.0 mg/kg/injection, schedule: Q01DX009 (ip), vehicle: saline with Tween-80)?
Answer: 127 % of control

Question: And the T/C [2]?
Answer: 132 % of control [5 of 6 alive]

Question: And the survivor count [2]?
Answer: 0 of 6

Question: What about the T/C (dose: 50.0 mg/kg/injection, schedule: Q01DX001 (ip), vehicle: carboxymethylcellulose (CMC)) of the same compound?
Answer: 125 and 135 % of control

Question: What about the survivor count (dose: 50.0 mg/kg/injection, schedule: Q04DX003 (ip), vehicle: other) of the same compound?
Answer: 5 of 6

Question: And the survivor count (dose: 75.0 mg/kg/injection, schedule: Q01DX Z (ip), vehicle: methylcellulose (MC))?
Answer: 0 of 6

Question: And the T/C (dose: 100.0 mg/kg/injection, schedule: Q01DX009 (ip), vehicle: saline sonified)?
Answer: 148 % of control

Question: What about the survivor count (dose: 150.0 mg/kg/injection, schedule: Q01DX Z (ip), vehicle: methylcellulose (MC)) of the same compound?
Answer: 6 of 6

Question: And the survivor count [3]?
Answer: 5 of 6

Question: And the survivor count [4]?
Answer: 0 of 6

Question: With `CC[N+](C)(C)c1ncnc2nc[nH]c12` as the compound, how does the survivor count [5] read?
Answer: 3 of 6

Question: What about the survivor count [6] of the same compound?
Answer: 0 of 6

Question: `O=[N+]([O-])c1ccccc1C1=Cc2cccn2-c2ccccc2S1(=O)=O` was tested. Which survivor count [4] did it give?
Answer: 6 of 6

Question: With `c1ccc([P+](Cc2cccc(C[P+](c3ccccc3)(c3ccccc3)c3ccccc3)c2)(c2ccccc2)c2ccccc2)cc1` as the compound, how does the survivor count (dose: 5.0 mg/kg/injection, schedule: Q01DX001 (ip), vehicle: acetone) read?
Answer: 2 of 6

Question: And the survivor count (dose: 10.0 mg/kg/injection, schedule: Q01DX001 (ip), vehicle: saline)?
Answer: 0 of 6

Question: What about the survivor count (dose: 20.0 mg/kg/injection, schedule: Q01DX001 (ip), vehicle: saline) of the same compound?
Answer: 0 of 6

Question: What about the survivor count (dose: 40.0 mg/kg/injection, schedule: Q01DX001 (ip), vehicle: saline) of the same compound?
Answer: 1 of 6

Question: And the survivor count (dose: 75.0 mg/kg/injection, schedule: Q01DX001 (ip), vehicle: acetone)?
Answer: 0 of 6

Question: What about the survivor count (dose: 150.0 mg/kg/injection, schedule: Q01DX001 (ip), vehicle: acetone) of the same compound?
Answer: 0 of 6

Question: And the survivor count (dose: 300.0 mg/kg/injection, schedule: Q01DX001 (ip), vehicle: acetone)?
Answer: 0 of 6

Question: Which results are given for `COC1C=COC2(C)Oc3c(C)c(O)c4c(c3C2=O)/C(=N/C2CCC(O)OC2C)C=C(NC(=O)/C(C)=C\C(=O)C2CC2C(O)C(C)C(O)C(C)C(OC(C)=O)C1C)C4=O` (stereo not drawn)?
Answer: survivor count (dose: 200.0 mg/kg/injection, schedule: Q04DX002 (ip), vehicle: saline with Tween-80): 3 of 3; survivor count [7]: 0 of 3

Question: How did the survivor count (dose: 400.0 mg/kg/injection, schedule: Q01DX009 (ip), vehicle: saline sonified) turn out when `O=C1N(Cl)C(=O)C(c2ccc(Cl)cc2)(c2ccc(Cl)cc2)N1Cl` was run?
Answer: 2 of 6

Question: With `CCCP(=O)(CCC)CCC` as the compound, how does the survivor count (dose: 100.0 mg/kg/injection, schedule: Q01DX001 (ip), vehicle: saline with Tween-80) read?
Answer: 2 of 6

Question: What about the survivor count (dose: 200.0 mg/kg/injection, schedule: Q01DX001 (ip), vehicle: saline with Tween-80) of the same compound?
Answer: 0 of 6

Question: What about the survivor count (dose: 400.0 mg/kg/injection, schedule: Q01DX001 (ip), vehicle: saline with Tween-80) of the same compound?
Answer: 0 of 6

Question: For `O=C(Nc1ccc(S(=O)(=O)O)cc1)c1ccc(C(=O)Nc2ccc(S(=O)(=O)O)cc2)cc1`, which survivor count (dose: 15.0 mg/kg/injection, schedule: Q01DX Z (ip), vehicle: saline) is on record?
Answer: 2 of 6

Question: With `CCCN(CCC)CC(C)O` (stereo not drawn) as the compound, how does the survivor count [8] read?
Answer: 0 of 6

Question: How did the T/C (dose: 100.0 mg/kg/injection, schedule: Q04DX002 (ip), vehicle: saline) turn out when `NCC1CCNCC1` was run?
Answer: 128 % of control

Question: And the survivor count (dose: 200.0 mg/kg/injection, schedule: Q04DX002 (ip), vehicle: saline)?
Answer: 3 of 3

Question: What does the source list for `CNC(=O)Oc1ccccc1NC(=O)OC`?
Answer: survivor count [9]: 3 of 6; survivor count [10]: 0 of 6

Question: How did the survivor count (dose: 100.0 mg/kg/injection, schedule: Q04DX002 (ip), vehicle: Klucel (hydroxypropylcellulose) (HPC)) turn out when `O=C(O)c1ccccc1S(=O)O` was run?
Answer: 3 of 3

Question: With `O=CNNC(=O)c1cnccn1` as the compound, how does the T/C [11] read?
Answer: 128 % of control [4 of 6 alive]

Question: And the survivor count [11]?
Answer: 2 of 6

Question: And the survivor count (dose: 600.0 mg/kg/injection, schedule: Q01DX009 (ip), vehicle: saline)?
Answer: 2 of 6

Question: For `C=CCOCC(O)CN(CC)c1ccccc1` (stereo not drawn), which survivor count [12] is on record?
Answer: 3 of 6

Question: What does the source list for `CCCCCc1ccc(C(=O)O)cc1`?
Answer: survivor count [9]: 3 of 6; survivor count [10]: 0 of 6

Question: With `C=CC1(C)C=C2CCC3C(C)(C(=O)O)CCCC3(C)C2CC1` (stereo not drawn) as the compound, how does the survivor count [7] read?
Answer: 0 of 3

Question: For `O=[N+]([O-])c1c(Br)ncn1Cc1ccccc1`, which survivor count (dose: 400.0 mg/kg/injection, schedule: Q04DX003 (ip), vehicle: acetone) is on record?
Answer: 1 of 6

Question: With `CCCCN(CCCC)CC(O)c1cnc2c(Cl)cc(Cl)cc2c1Cl` (stereo not drawn) as the compound, how does the survivor count (dose: 400.0 mg/kg/injection, schedule: Q01DX009 (ip), vehicle: saline with Tween-80) read?
Answer: 4 of 6

Question: How did the survivor count [13] turn out when `Cc1ccc2ccc(/C=N/Nc3ccc4cccc(O)c4n3)c(O)c2n1` was run?
Answer: 3 of 4

Question: Which survivor count [10] does the source give for `COC1(c2ccccc2)OC(C(C)(C)C)=NC1(C)C` (stereo not drawn) here?
Answer: 0 of 6

Question: Which survivor count [12] does the source give for `COc1ccccc1/C=C/[N+](=O)[O-]` here?
Answer: 4 of 6

Question: And the survivor count (dose: 200.0 mg/kg/injection, schedule: Q01DX009 (ip), vehicle: Klucel (hydroxypropylcellulose) (HPC))?
Answer: 0 of 6

Question: And the survivor count [3]?
Answer: 6 of 6

Question: And the survivor count (dose: 400.0 mg/kg/injection, schedule: Q01DX009 (ip), vehicle: Klucel (hydroxypropylcellulose) (HPC))?
Answer: 0 of 6

Question: How did the survivor count (dose: 350.0 mg/kg/injection, schedule: Q01DX009 (ip), vehicle: Klucel (hydroxypropylcellulose) (HPC)) turn out when `N#CCCN(CCC#N)[N+](=O)[O-]` was run?
Answer: 2 of 6

Question: Which results are given for `[Cl][Al]([Cl])[Cl]`?
Answer: survivor count (dose: 25.0 mg/kg/injection, schedule: Q01DX009 (ip), vehicle: saline): 6 of 6; survivor count (dose: 50.0 mg/kg/injection, schedule: Q01DX009 (ip), vehicle: saline): 3 of 6; survivor count (dose: 100.0 mg/kg/injection, schedule: Q01DX009 (ip), vehicle: saline): 1 of 6; survivor count [14]: 5 of 6; survivor count (dose: 200.0 mg/kg/injection, schedule: Q01DX001 (ip), vehicle: saline): 6 of 6; survivor count [5]: 1 of 6; survivor count [6]: 3 of 6; survivor count [8]: 1 of 6

Question: For `CCOC=Nc1ccc(-n2cnc3c(Cl)ncnc32)cc1C`, which survivor count [13] is on record?
Answer: 2 of 4

Question: `CCCCNC(C)(C)C(S)c1ccc(Cl)cc1` (stereo not drawn) was tested. Which survivor count (dose: 50.0 mg/kg/injection, schedule: Q01DX009 (ip), vehicle: Klucel (hydroxypropylcellulose) (HPC)) did it give?
Answer: 2 of 6

Question: And the survivor count [14]?
Answer: 1 of 6

Question: What about the survivor count (dose: 200.0 mg/kg/injection, schedule: Q04DX003 (ip), vehicle: saline) of the same compound?
Answer: 1 of 6

Question: What about the survivor count [8] of the same compound?
Answer: 0 of 6

Question: For `O=[N+]([O-])c1ccc2cnn(CN3CCCCC3)c2c1`, which survivor count [13] is on record?
Answer: 2 of 4
